We go through one compound from US9216991B2 (Ares Trading S.A., priority 2012, dated 2015).

Amino acid sequences for entries named in this document (tags omitted).
UniProt Q9NWZ3, whole entry: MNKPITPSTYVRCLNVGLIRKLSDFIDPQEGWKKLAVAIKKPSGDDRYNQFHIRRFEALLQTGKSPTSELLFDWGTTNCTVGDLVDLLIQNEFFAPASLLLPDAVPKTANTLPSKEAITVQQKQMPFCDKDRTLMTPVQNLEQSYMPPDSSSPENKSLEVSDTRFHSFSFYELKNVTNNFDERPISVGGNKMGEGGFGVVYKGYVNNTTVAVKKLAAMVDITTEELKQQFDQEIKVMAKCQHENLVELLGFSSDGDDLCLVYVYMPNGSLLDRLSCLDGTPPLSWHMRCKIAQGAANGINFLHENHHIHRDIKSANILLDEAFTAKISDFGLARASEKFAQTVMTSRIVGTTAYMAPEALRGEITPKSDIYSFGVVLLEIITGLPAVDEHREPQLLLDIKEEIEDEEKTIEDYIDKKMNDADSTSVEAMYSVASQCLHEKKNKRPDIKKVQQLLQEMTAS

SMILES strings stand for the structures. The match of structure and compound is tentative.

The test concerns the target IRAK4 (Homo sapiens, UniProt Q9NWZ3). Nature of the test: IRAK4 Enzymatic Assay. As to conditions: read-out: IRAK4 IC50; His-TEV-IRAK4 20 ng/well, ATP 2 μM, STK1-biotin peptide 300 nM, 3 hours at 30° C., FlashPlate radioactivity. How it is done:
IRAK4 is a human purified recombinant enzyme (His-TEV-IRAK1 (194-712)
IRAK4 hydrolyses ATP, autophosphorylates and phosphorylates a Serine/Threonine generic peptidic substrate (STK: 61ST1BLC from CisBio International based in Bagnols/Cèze FR).
Measurement of IRAK-4 inhibition is performed in streptavidin coated 384 well FlashPlate (PerkinElmer #SMP410A). His-TEV-IRAK4 (20 ng/well), ATP (2 μM, [^33P]ATP 0.25 μCi/well), STK1-biotin peptide (300 nM) and compounds in DMSO (range of concentrations from 20 μM to 1nM) or controls (2% DMSO) are incubated for 3 hours at 30° C. in assay buffer: Hepes pH7.0 50 mM, Fatty acid-free BSA 0.1%, Dithiothreitol DTT 2 mM, MgCl2 10 mM, EGTA 0.5 mM, Tween-20 0.01%, MnCl2 5 mM.
Kinase reaction is stopped by addition of EDTA. Supernatant is discarded, plates are washed three times with 150 mM NaCl and radioactivity is then measured in a Microbeta Trilux reader.

By IC50 is commonly meant the concentration that inhibits the measured activity by half. For the compound `Cn1cc(-c2cccc(-c3ncc(-c4cnn(CC(=O)NC(C)(C)CO)c4)cn3)c2)cn1`, the concentration for half-maximal inhibition (IC50) is 1000 to 5000 nM.
